Data published in article PMC11733299.
No constants are given. Whether binding was seen depends on the method and setting. Some binding calls cover weakened binding; strength is not graded here.

Key:
Test in all cases: two-hybrid; mating-based split-ubiquitin system (mbSUS); CNGC (full length or TM domains) in pMetYCgate (Cub), CPK1 in pNXgate32-3HA (Nub); yeast THY.AP4; growth on SD/-Leu-Trp-His-Ade
[1] = molecular target: T1, CNGC14-M (aa102-410) in pMetYCgate (Cub) (Arabidopsis thaliana) (UniProt Q9SJA4)
T1 sequence: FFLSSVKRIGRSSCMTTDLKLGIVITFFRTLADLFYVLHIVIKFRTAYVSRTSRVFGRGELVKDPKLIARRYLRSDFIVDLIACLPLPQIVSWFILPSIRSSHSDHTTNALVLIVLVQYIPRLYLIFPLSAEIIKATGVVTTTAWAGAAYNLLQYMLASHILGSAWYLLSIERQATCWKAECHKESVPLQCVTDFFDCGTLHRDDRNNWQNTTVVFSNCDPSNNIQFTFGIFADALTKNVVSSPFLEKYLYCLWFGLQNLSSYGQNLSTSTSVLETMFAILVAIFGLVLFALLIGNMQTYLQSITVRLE

[2] = molecular target: T2, CNGC5-M (aa103-412) in pMetYCgate (Cub) (Arabidopsis thaliana) (UniProt Q8RWS9)
T2 sequence: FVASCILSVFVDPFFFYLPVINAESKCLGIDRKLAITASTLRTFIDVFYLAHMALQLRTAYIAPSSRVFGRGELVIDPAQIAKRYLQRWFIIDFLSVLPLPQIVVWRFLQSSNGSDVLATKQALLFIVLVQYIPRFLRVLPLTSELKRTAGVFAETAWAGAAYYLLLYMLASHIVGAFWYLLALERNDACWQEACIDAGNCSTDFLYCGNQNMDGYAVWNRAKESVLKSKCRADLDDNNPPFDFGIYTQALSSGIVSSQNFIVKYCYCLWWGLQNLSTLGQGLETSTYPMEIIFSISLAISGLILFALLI

[3] = molecular target: T3, CNGC6-M (aa117-428) in pMetYCgate (Cub) (Arabidopsis thaliana) (UniProt O82226)
T3 sequence: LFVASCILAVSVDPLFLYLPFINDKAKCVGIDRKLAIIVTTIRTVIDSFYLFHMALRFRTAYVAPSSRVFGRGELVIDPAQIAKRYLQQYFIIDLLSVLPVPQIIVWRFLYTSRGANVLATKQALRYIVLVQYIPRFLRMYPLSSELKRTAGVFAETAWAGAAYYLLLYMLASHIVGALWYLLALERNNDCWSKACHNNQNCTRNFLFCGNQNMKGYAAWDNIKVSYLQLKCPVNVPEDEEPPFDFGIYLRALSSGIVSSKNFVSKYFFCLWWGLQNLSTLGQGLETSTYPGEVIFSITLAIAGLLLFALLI

[4] = molecular target: T4, full-length CNGC9 in pMetYCgate (Cub) (Arabidopsis thaliana) (UniProt Q9M0A4)
T4 sequence: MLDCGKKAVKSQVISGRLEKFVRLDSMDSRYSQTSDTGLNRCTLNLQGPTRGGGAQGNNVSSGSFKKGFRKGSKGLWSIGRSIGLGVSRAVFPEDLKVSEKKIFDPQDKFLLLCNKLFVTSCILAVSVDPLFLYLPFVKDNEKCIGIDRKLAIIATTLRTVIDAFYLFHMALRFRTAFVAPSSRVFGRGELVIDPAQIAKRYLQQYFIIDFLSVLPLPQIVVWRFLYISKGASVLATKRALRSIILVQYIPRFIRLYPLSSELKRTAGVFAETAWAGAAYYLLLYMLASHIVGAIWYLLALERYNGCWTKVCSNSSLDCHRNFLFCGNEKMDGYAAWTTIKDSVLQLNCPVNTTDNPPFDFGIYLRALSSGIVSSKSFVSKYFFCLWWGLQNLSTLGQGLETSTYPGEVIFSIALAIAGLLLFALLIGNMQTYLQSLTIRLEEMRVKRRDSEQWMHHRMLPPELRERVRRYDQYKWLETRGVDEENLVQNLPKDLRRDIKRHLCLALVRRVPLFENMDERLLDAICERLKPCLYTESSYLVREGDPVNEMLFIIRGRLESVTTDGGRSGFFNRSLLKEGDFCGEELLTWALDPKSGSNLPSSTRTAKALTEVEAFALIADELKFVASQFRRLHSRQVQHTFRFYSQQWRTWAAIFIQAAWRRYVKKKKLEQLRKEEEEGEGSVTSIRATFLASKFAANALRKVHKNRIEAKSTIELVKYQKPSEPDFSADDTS

binding [1]: no binding
binding [2]: no binding
binding [3]: no binding
binding [4]: binds
B1: Nub-CPK1 (calcium dependent protein kinase 1 in pNXgate32-3HA) (enzyme, UniProt Q06850 1-610)
chain: MGNTCVGPSRNGFLQSVSAAMWRPRDGDDSASMSNGDIASEAVSGELRSRLSDEVQNKPPEQVTMPKPGTDVETKDREIRTESKPETLEEISLESKPETKQETKSETKPESKPDPPAKPKKPKHMKRVSSAGLRTESVLQRKTENFKEFYSLGRKLGQGQFGTTFLCVEKTTGKEFACKSIAKRKLLTDEDVEDVRREIQIMHHLAGHPNVISIKGAYEDVVAVHLVMECCAGGELFDRIIQRGHYTERKAAELTRTIVGVVEACHSLGVMHRDLKPENFLFVSKHEDSLLKTIDFGLSMFFKPDDVFTDVVGSPYYVAPEVLRKRYGPEADVWSAGVIVYILLSGVPPFWAETEQGIFEQVLHGDLDFSSDPWPSISESAKDLVRKMLVRDPKKRLTAHQVLCHPWVQVDGVAPDKPLDSAVLSRMKQFSAMNKFKKMALRVIAESLSEEEIAGLKEMFNMIDADKSGQITFEELKAGLKRVGANLKESEILDLMQAADVDNSGTIDYKEFIAATLHLNKIEREDHLFAAFTYFDKDGSGYITPDELQQACEEFGVEDVRIEELMRDVDQDNDGRIDYNEFVAMMQKGSITGGPVKMGLEKSFSIALKL
